{"sequences": {"note": "Sequences of proteins named here, by UniProt entry; tags and fusion partners are left off. A change or cut given only in a name is not applied to a line headed by its entry.", "UniProt Q96QE3": "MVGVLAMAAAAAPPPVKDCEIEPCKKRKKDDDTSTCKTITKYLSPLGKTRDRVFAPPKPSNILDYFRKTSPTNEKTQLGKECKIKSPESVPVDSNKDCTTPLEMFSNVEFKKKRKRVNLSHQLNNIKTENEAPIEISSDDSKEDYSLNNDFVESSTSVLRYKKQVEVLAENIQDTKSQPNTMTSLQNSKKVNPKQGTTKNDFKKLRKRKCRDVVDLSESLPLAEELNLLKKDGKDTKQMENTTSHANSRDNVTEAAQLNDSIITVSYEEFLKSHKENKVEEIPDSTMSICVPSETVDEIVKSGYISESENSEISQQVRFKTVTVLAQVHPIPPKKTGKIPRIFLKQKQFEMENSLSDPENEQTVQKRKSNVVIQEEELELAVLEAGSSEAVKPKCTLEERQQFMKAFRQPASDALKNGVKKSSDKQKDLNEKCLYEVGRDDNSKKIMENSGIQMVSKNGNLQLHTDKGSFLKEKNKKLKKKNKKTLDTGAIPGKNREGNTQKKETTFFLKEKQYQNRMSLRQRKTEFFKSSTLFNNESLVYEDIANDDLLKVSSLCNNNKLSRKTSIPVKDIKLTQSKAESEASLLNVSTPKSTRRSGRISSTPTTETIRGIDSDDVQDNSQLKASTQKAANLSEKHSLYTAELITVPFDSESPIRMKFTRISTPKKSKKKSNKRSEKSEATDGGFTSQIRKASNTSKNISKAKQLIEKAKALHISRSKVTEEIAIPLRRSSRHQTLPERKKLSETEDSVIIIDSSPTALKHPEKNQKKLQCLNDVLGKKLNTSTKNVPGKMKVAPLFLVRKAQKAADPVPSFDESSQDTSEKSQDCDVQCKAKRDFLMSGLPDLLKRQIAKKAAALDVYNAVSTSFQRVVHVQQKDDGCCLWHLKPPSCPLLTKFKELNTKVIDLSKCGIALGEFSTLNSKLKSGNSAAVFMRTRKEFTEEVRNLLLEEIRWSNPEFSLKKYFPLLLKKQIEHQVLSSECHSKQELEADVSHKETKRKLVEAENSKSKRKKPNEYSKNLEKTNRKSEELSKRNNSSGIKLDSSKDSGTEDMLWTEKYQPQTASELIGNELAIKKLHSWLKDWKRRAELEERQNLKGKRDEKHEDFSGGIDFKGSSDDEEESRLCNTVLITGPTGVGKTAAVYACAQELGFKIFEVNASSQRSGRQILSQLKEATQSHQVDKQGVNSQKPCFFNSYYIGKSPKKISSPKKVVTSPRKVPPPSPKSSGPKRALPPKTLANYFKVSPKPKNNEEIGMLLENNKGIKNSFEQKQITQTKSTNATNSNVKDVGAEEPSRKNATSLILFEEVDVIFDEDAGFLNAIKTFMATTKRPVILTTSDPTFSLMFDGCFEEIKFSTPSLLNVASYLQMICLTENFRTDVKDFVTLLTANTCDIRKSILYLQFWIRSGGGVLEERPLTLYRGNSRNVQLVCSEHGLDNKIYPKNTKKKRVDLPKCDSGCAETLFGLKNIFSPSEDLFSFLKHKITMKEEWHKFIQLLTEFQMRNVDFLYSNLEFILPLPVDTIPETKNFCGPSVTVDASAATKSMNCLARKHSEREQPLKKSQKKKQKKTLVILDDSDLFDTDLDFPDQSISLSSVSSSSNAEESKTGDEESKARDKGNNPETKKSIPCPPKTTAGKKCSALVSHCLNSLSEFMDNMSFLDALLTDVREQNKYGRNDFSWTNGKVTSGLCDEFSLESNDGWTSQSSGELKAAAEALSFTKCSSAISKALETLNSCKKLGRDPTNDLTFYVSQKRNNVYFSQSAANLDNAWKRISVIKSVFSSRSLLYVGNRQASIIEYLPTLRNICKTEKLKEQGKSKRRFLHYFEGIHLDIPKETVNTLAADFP", "UniProt Q9C0F0": "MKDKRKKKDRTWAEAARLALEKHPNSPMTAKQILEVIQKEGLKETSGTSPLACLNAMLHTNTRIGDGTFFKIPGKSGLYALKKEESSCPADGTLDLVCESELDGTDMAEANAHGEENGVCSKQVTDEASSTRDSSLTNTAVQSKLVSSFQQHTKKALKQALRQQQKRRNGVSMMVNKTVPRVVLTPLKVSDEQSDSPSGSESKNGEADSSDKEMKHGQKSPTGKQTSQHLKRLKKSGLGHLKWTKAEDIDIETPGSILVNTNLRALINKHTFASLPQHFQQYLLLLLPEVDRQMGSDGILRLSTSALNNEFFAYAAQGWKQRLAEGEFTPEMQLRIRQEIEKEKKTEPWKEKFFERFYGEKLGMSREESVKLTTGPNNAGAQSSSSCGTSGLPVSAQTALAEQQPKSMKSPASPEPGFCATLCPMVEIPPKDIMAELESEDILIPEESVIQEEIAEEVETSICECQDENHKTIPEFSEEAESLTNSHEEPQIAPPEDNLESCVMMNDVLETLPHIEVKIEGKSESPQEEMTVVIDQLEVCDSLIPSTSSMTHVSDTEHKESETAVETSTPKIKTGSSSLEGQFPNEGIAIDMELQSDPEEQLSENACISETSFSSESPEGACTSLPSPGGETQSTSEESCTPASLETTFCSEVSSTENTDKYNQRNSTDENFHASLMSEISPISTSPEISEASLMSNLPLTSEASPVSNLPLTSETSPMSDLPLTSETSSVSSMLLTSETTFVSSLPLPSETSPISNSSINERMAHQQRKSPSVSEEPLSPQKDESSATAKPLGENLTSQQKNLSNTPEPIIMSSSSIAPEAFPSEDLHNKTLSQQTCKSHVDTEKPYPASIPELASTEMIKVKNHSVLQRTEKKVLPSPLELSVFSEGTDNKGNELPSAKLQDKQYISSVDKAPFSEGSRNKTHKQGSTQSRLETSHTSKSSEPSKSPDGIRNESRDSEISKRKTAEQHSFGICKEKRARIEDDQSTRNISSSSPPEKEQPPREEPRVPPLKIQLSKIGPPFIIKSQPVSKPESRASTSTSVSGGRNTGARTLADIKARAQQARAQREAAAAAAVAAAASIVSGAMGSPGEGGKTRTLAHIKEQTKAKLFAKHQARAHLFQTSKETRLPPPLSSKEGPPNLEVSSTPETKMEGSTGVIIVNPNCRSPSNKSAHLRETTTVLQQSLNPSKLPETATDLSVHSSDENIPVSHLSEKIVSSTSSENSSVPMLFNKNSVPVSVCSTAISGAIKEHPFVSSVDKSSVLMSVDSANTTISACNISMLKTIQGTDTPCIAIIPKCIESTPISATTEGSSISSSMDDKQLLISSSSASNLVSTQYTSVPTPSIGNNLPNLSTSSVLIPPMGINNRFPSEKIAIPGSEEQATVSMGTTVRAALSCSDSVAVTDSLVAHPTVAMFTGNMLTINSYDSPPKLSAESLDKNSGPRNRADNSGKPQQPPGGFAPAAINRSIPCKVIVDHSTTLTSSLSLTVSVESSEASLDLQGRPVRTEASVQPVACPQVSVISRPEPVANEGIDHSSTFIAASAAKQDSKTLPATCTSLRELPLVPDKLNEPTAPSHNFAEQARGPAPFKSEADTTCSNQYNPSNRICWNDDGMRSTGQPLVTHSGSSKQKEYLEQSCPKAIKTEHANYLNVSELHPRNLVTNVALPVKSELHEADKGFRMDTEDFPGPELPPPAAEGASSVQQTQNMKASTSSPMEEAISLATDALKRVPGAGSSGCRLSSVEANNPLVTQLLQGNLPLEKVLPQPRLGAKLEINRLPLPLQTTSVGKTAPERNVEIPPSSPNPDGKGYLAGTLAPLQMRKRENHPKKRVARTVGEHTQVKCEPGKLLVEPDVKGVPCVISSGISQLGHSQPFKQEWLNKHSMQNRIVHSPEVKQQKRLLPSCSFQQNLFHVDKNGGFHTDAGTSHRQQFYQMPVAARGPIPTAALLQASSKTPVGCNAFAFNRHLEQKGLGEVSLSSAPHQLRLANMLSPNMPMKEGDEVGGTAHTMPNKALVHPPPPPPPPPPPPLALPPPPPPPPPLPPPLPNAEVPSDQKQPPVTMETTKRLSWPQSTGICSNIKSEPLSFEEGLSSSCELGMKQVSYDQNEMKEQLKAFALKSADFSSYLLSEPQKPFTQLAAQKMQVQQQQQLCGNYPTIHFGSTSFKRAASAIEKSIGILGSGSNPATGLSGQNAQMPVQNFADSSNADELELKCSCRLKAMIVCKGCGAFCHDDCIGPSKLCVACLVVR", "UniProt O95260": "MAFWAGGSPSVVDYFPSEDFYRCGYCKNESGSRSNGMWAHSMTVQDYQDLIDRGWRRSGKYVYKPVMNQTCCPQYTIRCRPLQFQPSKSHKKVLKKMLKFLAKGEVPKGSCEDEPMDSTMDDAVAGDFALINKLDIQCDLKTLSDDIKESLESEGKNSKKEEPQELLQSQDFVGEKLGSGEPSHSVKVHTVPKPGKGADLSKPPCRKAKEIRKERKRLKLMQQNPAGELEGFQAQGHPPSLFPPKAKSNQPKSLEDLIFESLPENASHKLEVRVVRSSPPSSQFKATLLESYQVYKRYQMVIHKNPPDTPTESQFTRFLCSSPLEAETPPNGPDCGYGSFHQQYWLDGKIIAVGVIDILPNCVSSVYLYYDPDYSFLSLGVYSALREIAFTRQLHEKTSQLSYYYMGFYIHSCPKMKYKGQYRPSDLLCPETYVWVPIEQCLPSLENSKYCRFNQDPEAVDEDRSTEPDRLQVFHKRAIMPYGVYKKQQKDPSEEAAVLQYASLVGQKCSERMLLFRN", "UniProt Q14CW9": "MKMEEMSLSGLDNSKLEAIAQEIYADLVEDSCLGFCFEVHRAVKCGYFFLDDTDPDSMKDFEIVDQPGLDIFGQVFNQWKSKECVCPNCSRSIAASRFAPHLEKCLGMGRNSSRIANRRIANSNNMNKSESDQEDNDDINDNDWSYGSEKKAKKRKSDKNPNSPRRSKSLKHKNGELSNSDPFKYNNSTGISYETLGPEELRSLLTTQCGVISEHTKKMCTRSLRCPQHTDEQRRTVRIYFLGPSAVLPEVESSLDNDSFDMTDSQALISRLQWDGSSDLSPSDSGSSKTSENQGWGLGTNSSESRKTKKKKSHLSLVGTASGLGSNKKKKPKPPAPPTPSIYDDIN", "UniProt P36542": "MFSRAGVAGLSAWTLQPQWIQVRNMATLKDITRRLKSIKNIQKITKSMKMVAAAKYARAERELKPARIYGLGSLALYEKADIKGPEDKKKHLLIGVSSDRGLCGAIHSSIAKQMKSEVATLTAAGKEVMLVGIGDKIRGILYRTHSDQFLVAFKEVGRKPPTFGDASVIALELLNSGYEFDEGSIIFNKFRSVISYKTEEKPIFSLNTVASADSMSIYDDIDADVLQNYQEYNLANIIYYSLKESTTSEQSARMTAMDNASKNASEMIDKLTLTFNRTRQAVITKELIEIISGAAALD", "UniProt B2RBV5": "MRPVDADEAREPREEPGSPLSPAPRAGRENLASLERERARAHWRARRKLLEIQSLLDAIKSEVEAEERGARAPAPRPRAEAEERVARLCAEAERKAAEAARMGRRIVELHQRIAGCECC", "UniProt Q6P4H8": "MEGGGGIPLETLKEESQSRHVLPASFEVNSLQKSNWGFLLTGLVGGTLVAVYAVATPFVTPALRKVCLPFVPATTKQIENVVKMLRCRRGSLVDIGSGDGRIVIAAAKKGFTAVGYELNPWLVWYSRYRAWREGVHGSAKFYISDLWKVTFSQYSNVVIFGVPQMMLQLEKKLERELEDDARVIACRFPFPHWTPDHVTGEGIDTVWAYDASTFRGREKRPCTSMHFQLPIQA", "UniProt Q2TB18": "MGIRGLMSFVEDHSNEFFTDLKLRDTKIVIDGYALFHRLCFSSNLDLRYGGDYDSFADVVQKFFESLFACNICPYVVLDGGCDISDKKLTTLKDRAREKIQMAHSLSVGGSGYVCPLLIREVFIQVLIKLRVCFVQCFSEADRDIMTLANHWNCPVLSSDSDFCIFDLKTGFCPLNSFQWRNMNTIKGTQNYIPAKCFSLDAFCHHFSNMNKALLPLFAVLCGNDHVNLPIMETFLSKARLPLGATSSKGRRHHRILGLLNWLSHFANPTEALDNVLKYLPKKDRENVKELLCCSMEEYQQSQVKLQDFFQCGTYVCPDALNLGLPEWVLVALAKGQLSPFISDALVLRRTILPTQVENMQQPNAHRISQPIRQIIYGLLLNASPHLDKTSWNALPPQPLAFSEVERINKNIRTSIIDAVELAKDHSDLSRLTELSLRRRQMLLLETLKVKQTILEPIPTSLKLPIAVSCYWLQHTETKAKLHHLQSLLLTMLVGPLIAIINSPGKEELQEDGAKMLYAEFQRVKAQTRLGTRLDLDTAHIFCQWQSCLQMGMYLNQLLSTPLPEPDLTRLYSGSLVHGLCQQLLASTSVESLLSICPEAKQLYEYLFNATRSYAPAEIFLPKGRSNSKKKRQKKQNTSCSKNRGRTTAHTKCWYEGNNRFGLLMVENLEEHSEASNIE"}, "source": "the supplement of paper PMC10849652", "test_in_all_cases": "log2 fold change, soluble protein after heating vs DMSO (PISA); higher = thermal stabilisation; K562 lysate, 10 uM; active = over 0.2 and 3.5 SD of the protein, either way, in both replicates (recomputed)", "key": {"vorinostat": {"compound": "O=C(CCCCCCC(=O)Nc1ccccc1)NO [vorinostat]", "method_in_brief": "(§1)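 Quantification was by TMTpro 16plex LC-MS/MS with equalised channel sums, applied to the supernatant after 21,000xg for 90 min. Samples were crude K562 extract at 1 mg/mL protein in PBS pH 7.4 with 1 mM MgCl2, treated with 10 μM compound for 30 min, heated for 3 min across 48°C-58°C, pooled and brought to 0.5% NP-40 at 4°C. Values are log-two fold changes in thermal stability relative to solvent controls, from duplicates.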"}, "silmitasertib": {"compound": "O=C(O)c1ccc2c(c1)nc(Nc1cccc(Cl)c1)c1ccncc12 [silmitasertib]", "method_in_brief": "as §1"}, "entospletinib": {"compound": "c1cn2cc(-c3ccc4cn[nH]c4c3)nc(Nc3ccc(N4CCOCC4)cc3)c2n1 [entospletinib]", "method_in_brief": "as §1"}, "[1]": {"compound": "O=C1NC(=O)C(c2cnc3ccccn23)=C1c1cn2c3c(cc(F)cc13)CN(C(=O)N1CCCCC1)CC2", "method_in_brief": "as §1"}}, "note": "This is one part of the list.", "data": [{"target": "ATAD5 (UniProt Q96QE3)", "values": [{"measurement": "log2 fold change", "setting": "vorinostat", "value": "inactive: -0.048"}, {"measurement": "log2 fold change", "setting": "silmitasertib", "value": "inactive: 0.072"}, {"measurement": "log2 fold change", "setting": "entospletinib", "value": "inactive: -0.088"}]}, {"target": "ATP1B1 (UniProt P05026)", "values": [{"measurement": "log2 fold change", "setting": "vorinostat", "value": "inactive: 0.21"}, {"measurement": "log2 fold change", "setting": "silmitasertib", "value": "inactive: 0.025"}, {"measurement": "log2 fold change", "setting": "[1]", "value": "inactive: 0.004"}]}, {"target": "ASXL3 (UniProt Q9C0F0)", "values": [{"measurement": "log2 fold change", "setting": "vorinostat", "value": "inactive: -0.129"}, {"measurement": "log2 fold change", "setting": "silmitasertib", "value": "inactive: 0.058"}, {"measurement": "log2 fold change", "setting": "[1]", "value": "inactive: 0.024"}]}, {"target": "ATE1 (UniProt O95260)", "values": [{"measurement": "log2 fold change", "setting": "[1]", "value": "inactive: 0.028"}]}, {"target": "ATXN7L3 isoform 2 (UniProt Q14CW9)", "values": [{"measurement": "log2 fold change", "setting": "vorinostat", "value": "inactive: -0.348"}, {"measurement": "log2 fold change", "setting": "silmitasertib", "value": "inactive: -0.034"}, {"measurement": "log2 fold change", "setting": "[1]", "value": "inactive: -0.018"}]}, {"target": "ATF6 (UniProt P18850)", "values": [{"measurement": "log2 fold change", "setting": "vorinostat", "value": "inactive: -0.287"}, {"measurement": "log2 fold change", "setting": "silmitasertib", "value": "inactive: 0.167"}, {"measurement": "log2 fold change", "setting": "entospletinib", "value": "inactive: -0.014"}]}, {"target": "ATG4D (UniProt Q86TL0)", "values": [{"measurement": "log2 fold change", "setting": "[1]", "value": "inactive: 0.117"}, {"measurement": "log2 fold change", "setting": "entospletinib", "value": "inactive: 0.004"}]}, {"target": "ATP1B4 (UniProt Q9UN42)", "values": [{"measurement": "log2 fold change", "setting": "[1]", "value": "inactive: -0.064"}]}, {"target": "ATP5F1C isoform 2 (UniProt P36542)", "values": [{"measurement": "log2 fold change", "setting": "[1]", "value": "inactive: 0.07"}]}, {"target": "NA (UniProt B2RBV5)", "values": [{"measurement": "log2 fold change", "setting": "vorinostat", "value": "inactive: -0.01"}, {"measurement": "log2 fold change", "setting": "silmitasertib", "value": "inactive: -0.056"}, {"measurement": "log2 fold change", "setting": "[1]", "value": "inactive: -0.266"}, {"measurement": "log2 fold change", "setting": "entospletinib", "value": "inactive: -0.092"}]}, {"target": "ATP5F1B (UniProt F8W079)", "values": [{"measurement": "log2 fold change", "setting": "entospletinib", "value": "inactive: 0"}]}, {"target": "ATPSCKMT (UniProt Q6P4H8)", "values": [{"measurement": "log2 fold change", "setting": "[1]", "value": "inactive: 0"}, {"measurement": "log2 fold change", "setting": "entospletinib", "value": "inactive: 0.105"}]}, {"target": "ASTE1 (UniProt Q2TB18)", "values": [{"measurement": "log2 fold change", "setting": "[1]", "value": "inactive: -0.382"}]}]}
